Measured values: patent US20250179160A1
Changes are numbered by the printed parent chain. Results are given in words; binding and its absence hold for the method and conditions named. Binding calls can cover weak binding; strength is not graded here.

B1: 1F9, purified recombinant, human IgG4 (antibody, V domains shown)
VH: EVKLEESGGGLVQPGGSMKLSCVASGFTFGSYWMSWVRQSPEKGLEWVAEIRLKSDNYAAHYAESVKGKFTISRDDSKSRLYLQMNSLRGEDTGIYYCTNAWFASWGQGTLVTVSA
VL: DIVMSQSPSSLTVSVGEKVTMSCMSSQSLLYSKDQKNYLAWYQQKPGQSPTLLIYWASTRESGVPDRFTGSGSGTDFTLTISSVKAEDLAVYYCLQYYTYPYTFGGGTKLEIKR
B2: 20A1, purified recombinant, human IgG4 (antibody, V domains shown)
VH: B1 VH with V23I, G30S, S31T, D56E, A60T, H61Y, T71I, G90A, S105N
VL: B1 VL with T12V, M24K, S28N, K33R, T51N, T78S, T99S, I112M
B3: 18F5, purified recombinant, human IgG4 (antibody, V domains shown)
VH: B1 VH with S31N, A60T, I95L
VL: B1 VL with T12A, T51K
B4: 2A4, purified recombinant, human IgG4 (antibody, V domains shown)
VH: B1 VH with G30S, S31T, A60T, A63T, G90V, S105Y
VL: B1 VL with T12A, V19F, M24K, K33R, K45Q, T51K, A86T, T99S
B5: 1F9, hybridoma supernatant (antibody, V domains shown)
VH: B1 VH
VL: B1 VL
B6: 20A1, hybridoma supernatant (antibody, V domains shown)
VH: B1 VH with V23I, G30S, S31T, D56E, A60T, H61Y, T71I, G90A, S105N
VL: B1 VL with T12V, M24K, S28N, K33R, T51N, T78S, T99S, I112M
B7: 2A4, hybridoma supernatant (antibody, V domains shown)
VH: B1 VH with G30S, S31T, A60T, A63T, G90V, S105Y
VL: B1 VL with T12A, V19F, M24K, K33R, K45Q, T51K, A86T, T99S
B8: 18F5, hybridoma supernatant (antibody, V domains shown)
VH: B1 VH with S31N, A60T, I95L
VL: B1 VL with T12A, T51K

Target: recombinant human Pro-Factor D (human)
Experiment: ELISA (legend of FIG. 17A)

Row | binding | Binder
1 | binds | B1
2 | binds | B2
3 | binds | B3
4 | binds | B4

Target: recombinant human Pro-Factor D-His (human)
Experiment: ELISA with hybridoma supernatant on immobilized antigen

Row | binding | Binder
5 | binds | B5
6 | binds | B6
7 | binds | B7
8 | binds | B8

Target: recombinant human Pro-Factor D (human)
Experiment: ELISA; antibody from 3 µg/ml in 3-fold dilutions on plates coated with 1 µg/ml antigen (FIG. 17A)

Row | binding | Binder
9 | binds | B1
10 | binds | B2
11 | binds | B3
12 | binds | B4

Target: recombinant human Pro-Factor D (human)
Experiment: capture ELISA; antigen captured by goat polyclonal AF1824, hybridoma supernatant as detector (FIG. 15)

Row | binding | Binder
13 | binds | B5
14 | binds | B6
15 | binds | B7
16 | binds | B8

Target: recombinant human Pro-Factor D (human)
Experiment: ELISA: antibody titrated 3-fold from 3 ug/ml on plate coated with 1 ug/ml recombinant human pro-Factor D; HRP anti-mouse, rat or human secondary; OD450

Row | binding | Binder
17 | binds | B1
18 | binds | B2
19 | binds | B3
20 | binds | B4

Target: recombinant human Pro-Factor D (human)
Experiment: capture ELISA: recombinant Factor D captured by plate-bound goat polyclonal AF1824; hybridoma supernatant diluted two-fold; HRP goat anti-mouse IgG Fc; OD450

Row | binding | Binder
21 | binds | B5
22 | binds | B6
23 | binds | B7
24 | binds | B8
